Laboratory results reported in US20250002465A1, “TRIMERIC COPPER CATALYSTS, INTERMEDIATES FOR MAKING SUCH CATALYSTS AND METHOD FOR PREPARING A CYCLOADDITION COMPOUND” (University of Kentucky Research Foundation, priority 2023, published 2025).

System: MDA-MB-468
Assay: Cytotoxicity, MTT assay
Conditions: MDA-MB-468 cells

| Substance | IC50 relative to IC50 of THPTA |
| --- | --- |
| (Cis,cis-1,3,5-cyclohexanetribenzimidazole-1-butyl-2-yl)2(Cu(I)PF6)3 [compound 6] | more than twice |
| (Cis,cis-1,3,5-cyclohexanetribenzimidazole-1-(2-(2-methoxyethoxy)ethyl)-2-yl)2(Cu(I)PF6)3 [compound 7] | three times |
